# PubChem BioAssay AID1224830, NIAID, 2016
# Aim: 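Regulators of TLR4 signalling towards TNF-alpha in macrophage-like cells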 (primary screen)
# Cell system: human THP-1 monocytic leukaemia cells, TNF dual-luciferase reporter clone, PMA-differentiated to macrophage-like cells
# Reagents: siRNA pool against human genes, 50 nM
# Timing: LPS for 4 h, given about 3 days after siRNA transfection
# Conditions: bacterial LPS (TLR4 ligand), 10 ng/ml
# Measurement: 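Ratio of firefly to renilla light, scaled to the plate median and expressed as a robust z-score per replicate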
# Reading the numbers: TNF reporter robust z-score: higher = stronger TNF reporter response to LPS
# Hit rule: 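Each well counts as active if its z-score is over 2.8 or under -1.5; controls are left without a call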
# Here is one part, drawn at random, of about 18,000 reagents tested. Of all reagents, about 2,900 (16%) got an active call. 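Calls are made per well; low scores hint the gene aids the LPS response, high scores that it dampens it.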 Unmarked entries are inactive. Repeated entries: four replicate wells of each siRNA pool. No sequences are given here.
gene symbol,TNF reporter robust z-score
KRTCAP2,-0.37
KRTCAP2,-0.44
KRTCAP2,-0.48
KRTCAP2,-0.24
POLR3F,-0.11
POLR3F,2.19
POLR3F,1.68
POLR3F,0.98
CHMP4C,-0.32
CHMP4C,0.05
CHMP4C,-0.47
CHMP4C,1.36
MCM3AP,-1.76 (active)
MCM3AP,-1.42
MCM3AP,-1.27
MCM3AP,-1.31
CDK5RAP3,-0.18
CDK5RAP3,0.21
CDK5RAP3,-0.25
CDK5RAP3,0.22
OR5M9,-1.79 (active)
OR5M9,-1.29
OR5M9,-1.66 (active)
OR5M9,-1.77 (active)
INPPL1,1.92
INPPL1,0.94
INPPL1,1.15
INPPL1,2.05
USP49,-0.29
USP49,1.02
USP49,2.04
USP49,4.62 (active)
ZBED3,0.07
ZBED3,-0.77
ZBED3,-0.12
ZBED3,-0.52
KDM6B,-0.2
KDM6B,0.71
KDM6B,0.13
KDM6B,0.82
ZNF157,1.39
ZNF157,0.63
ZNF157,-0.04
ZNF157,0.39
PRXL2C,0.86
PRXL2C,0.81
PRXL2C,-0.16
PRXL2C,1.04
SFRP5,0.18
SFRP5,1.94
SFRP5,1.5
SFRP5,2.82 (active)
HEPACAM,-0.89
HEPACAM,-0.44
HEPACAM,-0.6
HEPACAM,0.42
HFM1,0.45
HFM1,0.04
HFM1,0.07
HFM1,0.09
OSBPL5,-0.94
OSBPL5,-0.74
OSBPL5,-1.13
OSBPL5,-0.25

Targets listed so far whose target name begins with P or p:
gene symbol,TNF reporter robust z-score
POLR3F,-0.11
POLR3F,2.19
POLR3F,1.68
POLR3F,0.98
PRXL2C,0.86
PRXL2C,0.81
PRXL2C,-0.16
PRXL2C,1.04

The listing continues.
gene symbol,TNF reporter robust z-score
PACC1,0.52
PACC1,0.96
PACC1,0.04
PACC1,0.4
TNRC18,0.4
TNRC18,-0.09
TNRC18,-0.97
TNRC18,-0.41
OR9Q2,0.12
OR9Q2,0.06
OR9Q2,-0.73
OR9Q2,0.26
GNG7,0.19
GNG7,0.42
GNG7,-0.02
GNG7,0.35
TBC1D10C,-0.21
TBC1D10C,-0.13
TBC1D10C,0.56
TBC1D10C,0.04
ZC3H18-DT,-0.73
ZC3H18-DT,-0.32
ZC3H18-DT,-1.1
NOMO3,-0.94
NOMO3,-0.44
NOMO3,-0.62
NOMO3,-0.73
PALM,0.5
PALM,0.7
PALM,0.76
PALM,0.82
PABPN1,1.27
PABPN1,1.45
PABPN1,0.68
PABPN1,1.31
HGFAC,0.8
HGFAC,0.33
HGFAC,0.9
HGFAC,0.78
FMNL3,-1.4
FMNL3,-0.14
FMNL3,-0.49
FMNL3,-0.21
TMEM256,-0.45
TMEM256,-0.97
TMEM256,-1.01
TMEM256,-0.84
